In publication PMC6294250:
These are yes or no findings as the source states them, for the method shown. Some entries that bind do so weakly or less than the wild type.

By UniProt entry, the sequences of proteins in these tests, tags left out.
UniProt O80501: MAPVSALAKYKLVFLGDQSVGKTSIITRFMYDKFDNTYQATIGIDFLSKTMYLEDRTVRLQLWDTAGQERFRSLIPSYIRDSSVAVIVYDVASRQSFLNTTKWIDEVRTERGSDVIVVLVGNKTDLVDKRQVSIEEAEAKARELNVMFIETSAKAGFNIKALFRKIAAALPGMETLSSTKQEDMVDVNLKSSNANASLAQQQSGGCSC

Biological target: Rab6 (yeast two-hybrid bait) (Arabidopsis) (UniProt O80501)
Assay: two-hybrid; direct assay, Matchmaker LexA system, bait in pGilda, prey in pB42AD-GW, co-transformed into yeast strain EGY48; β-galactosidase assay, plates after 3 days at 28 °C

B1: N-terminal cytosolic domain of YIP4A (aa 1-140) (domain or fragment, UniProt O64614 1-140)
chain: MSQGDTVPLHPSSQSDIDEIENLINESVQSGPGTVLAARPPSPTRPSIPVSSSSSSSPFMQSNLPPLHPSSSAQKVTHVPVPPPLPAVSNSSNFQGASAFGSPPNTLTEPVWDTVKRDLSRIVSNLKLVVFPNPYREDPG
**Q.** How did the binding turn out when B1 was run?
**A.** binds

B2: N-terminal cytosolic domain of YIP4B (aa 1-143) (domain or fragment, UniProt Q93VH1 1-143)
chain: MSHNDTIPLYQSSQSDIDEIENMMNDSFQSGPGTVLPARPPSPIRPSIPVSSSPFVQSNLPPLPPSSSSSTQKVMPVPAPPPLPSAGNEGNKSIGGSGFGSPPNTLTEPVWDTVKRDLSRIVSNLKLVVFPNPYREDPGKALR
**Q.** With B2 as the binder, how does the binding read?
**A.** binds
